From US20120141501A1
These are yes or no findings as the source states them, for the method shown. Some results given as binding are weak or reduced against the parent protein; the word gives no strength.

Protein sequences, listed by entry. Tags and fused reporters are not part of them. Lines headed by an entry give the natural chain unless they say otherwise; changes in a name come on top.
UniProt P01135: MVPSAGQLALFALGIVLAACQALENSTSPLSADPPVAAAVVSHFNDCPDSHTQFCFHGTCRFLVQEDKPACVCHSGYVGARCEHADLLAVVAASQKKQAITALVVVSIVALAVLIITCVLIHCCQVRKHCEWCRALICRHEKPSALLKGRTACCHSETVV
UniProt O14944: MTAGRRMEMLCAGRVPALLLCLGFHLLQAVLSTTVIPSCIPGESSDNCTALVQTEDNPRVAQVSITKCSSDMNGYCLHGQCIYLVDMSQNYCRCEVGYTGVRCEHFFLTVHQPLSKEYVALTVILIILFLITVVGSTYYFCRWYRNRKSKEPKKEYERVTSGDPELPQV

What was measured:
[1] = molecular target: mature TGFα (R&D Systems, 239-A) (human) (UniProt P01135); assay: ELISA on immobilized TGFα, COS-7 supernatant
[2] = molecular target: human Epiregulin (EREG) protein (human) (UniProt O14944); assay: ELISA on immobilized EREG (FIG. 6a)
[3] = molecular target: human Epiregulin (EREG) protein (human) (UniProt O14944); assay: ELISA on immobilized EREG, COS-7 supernatant
[4] = molecular target: mature TGFα (R&D Systems, 239-A) (human) (UniProt P01135); assay: ELISA on immobilized TGFα (FIG. 6b)

binding [1]: binds
binding [2]: binds
binding [3]: binds
binding [4]: binds
B1: EP19 recombinant chimeric antibody (mouse EP19 VH/VL with human IgG1 constant region) (antibody, V domains shown)
VH: EVQLQQSGPELEKPGASVKISCKASGYSFTGYNMNWVKQSNGKSLEWIGNIDPYYGAASYNQKFKGKATLTVDKSSSTAYMQLKSLTSEDSAVYYCARSQLPYWYFDVWGAGTTVTVSS
VL: DIVMTQSPSSLTVTAGEKVTMSCKSSQSLLNSGNQKNYLTWYQQKPGQPPKLLIYWASTRESGVPDRFTGSGSGTDFTLTISSVQAEDLAVYYCQNDYSYPYTFGGGTKLEIKR
